According to publication doi:10.1101/2022.09.13.507776:
No constants are given. Whether binding was seen depends on the method and setting. Binding seen in cells or lysates may run through a third protein. These calls come from enrichment with a bait or labelling near it, and not all partners need be listed.

Amino acid sequences for entries named in this document (tags omitted).
UniProt Q80U49: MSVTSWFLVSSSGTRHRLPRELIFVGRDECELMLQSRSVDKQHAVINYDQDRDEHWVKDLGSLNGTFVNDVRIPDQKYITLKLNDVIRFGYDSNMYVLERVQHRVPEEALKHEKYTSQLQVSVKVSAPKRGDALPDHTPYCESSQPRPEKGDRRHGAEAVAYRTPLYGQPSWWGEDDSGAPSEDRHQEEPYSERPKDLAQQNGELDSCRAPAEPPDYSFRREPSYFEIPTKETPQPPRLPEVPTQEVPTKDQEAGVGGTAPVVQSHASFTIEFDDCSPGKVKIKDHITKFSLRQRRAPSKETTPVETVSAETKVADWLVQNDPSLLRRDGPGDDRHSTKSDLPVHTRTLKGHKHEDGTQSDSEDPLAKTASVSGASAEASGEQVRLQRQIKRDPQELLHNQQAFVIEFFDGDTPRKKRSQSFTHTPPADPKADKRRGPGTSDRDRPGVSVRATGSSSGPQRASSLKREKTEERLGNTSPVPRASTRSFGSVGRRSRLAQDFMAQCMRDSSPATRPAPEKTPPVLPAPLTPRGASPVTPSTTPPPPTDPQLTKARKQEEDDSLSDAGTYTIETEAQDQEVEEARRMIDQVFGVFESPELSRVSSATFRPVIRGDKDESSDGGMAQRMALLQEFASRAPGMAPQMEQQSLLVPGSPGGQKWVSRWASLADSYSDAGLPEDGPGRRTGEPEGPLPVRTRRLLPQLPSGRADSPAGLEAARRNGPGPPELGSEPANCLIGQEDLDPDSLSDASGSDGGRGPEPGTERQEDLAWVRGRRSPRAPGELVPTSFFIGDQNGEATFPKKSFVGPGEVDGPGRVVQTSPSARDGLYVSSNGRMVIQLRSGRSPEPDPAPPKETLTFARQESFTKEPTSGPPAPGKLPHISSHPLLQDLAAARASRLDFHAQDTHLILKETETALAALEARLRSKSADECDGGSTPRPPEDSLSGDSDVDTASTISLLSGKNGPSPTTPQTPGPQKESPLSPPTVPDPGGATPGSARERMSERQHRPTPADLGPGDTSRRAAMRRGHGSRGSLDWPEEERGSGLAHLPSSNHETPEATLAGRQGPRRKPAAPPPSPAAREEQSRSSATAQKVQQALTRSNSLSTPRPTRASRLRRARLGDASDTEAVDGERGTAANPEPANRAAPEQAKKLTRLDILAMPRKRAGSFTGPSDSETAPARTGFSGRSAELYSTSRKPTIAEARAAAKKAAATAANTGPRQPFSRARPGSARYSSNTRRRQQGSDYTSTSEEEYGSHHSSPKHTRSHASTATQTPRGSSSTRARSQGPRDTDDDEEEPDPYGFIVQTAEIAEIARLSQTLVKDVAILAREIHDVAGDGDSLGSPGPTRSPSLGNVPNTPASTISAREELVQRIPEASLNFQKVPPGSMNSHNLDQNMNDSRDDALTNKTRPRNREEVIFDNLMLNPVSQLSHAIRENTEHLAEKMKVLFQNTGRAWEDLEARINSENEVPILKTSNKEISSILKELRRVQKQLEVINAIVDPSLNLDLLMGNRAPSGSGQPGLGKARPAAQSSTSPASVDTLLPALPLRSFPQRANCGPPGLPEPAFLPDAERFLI
UniProt Q811P8: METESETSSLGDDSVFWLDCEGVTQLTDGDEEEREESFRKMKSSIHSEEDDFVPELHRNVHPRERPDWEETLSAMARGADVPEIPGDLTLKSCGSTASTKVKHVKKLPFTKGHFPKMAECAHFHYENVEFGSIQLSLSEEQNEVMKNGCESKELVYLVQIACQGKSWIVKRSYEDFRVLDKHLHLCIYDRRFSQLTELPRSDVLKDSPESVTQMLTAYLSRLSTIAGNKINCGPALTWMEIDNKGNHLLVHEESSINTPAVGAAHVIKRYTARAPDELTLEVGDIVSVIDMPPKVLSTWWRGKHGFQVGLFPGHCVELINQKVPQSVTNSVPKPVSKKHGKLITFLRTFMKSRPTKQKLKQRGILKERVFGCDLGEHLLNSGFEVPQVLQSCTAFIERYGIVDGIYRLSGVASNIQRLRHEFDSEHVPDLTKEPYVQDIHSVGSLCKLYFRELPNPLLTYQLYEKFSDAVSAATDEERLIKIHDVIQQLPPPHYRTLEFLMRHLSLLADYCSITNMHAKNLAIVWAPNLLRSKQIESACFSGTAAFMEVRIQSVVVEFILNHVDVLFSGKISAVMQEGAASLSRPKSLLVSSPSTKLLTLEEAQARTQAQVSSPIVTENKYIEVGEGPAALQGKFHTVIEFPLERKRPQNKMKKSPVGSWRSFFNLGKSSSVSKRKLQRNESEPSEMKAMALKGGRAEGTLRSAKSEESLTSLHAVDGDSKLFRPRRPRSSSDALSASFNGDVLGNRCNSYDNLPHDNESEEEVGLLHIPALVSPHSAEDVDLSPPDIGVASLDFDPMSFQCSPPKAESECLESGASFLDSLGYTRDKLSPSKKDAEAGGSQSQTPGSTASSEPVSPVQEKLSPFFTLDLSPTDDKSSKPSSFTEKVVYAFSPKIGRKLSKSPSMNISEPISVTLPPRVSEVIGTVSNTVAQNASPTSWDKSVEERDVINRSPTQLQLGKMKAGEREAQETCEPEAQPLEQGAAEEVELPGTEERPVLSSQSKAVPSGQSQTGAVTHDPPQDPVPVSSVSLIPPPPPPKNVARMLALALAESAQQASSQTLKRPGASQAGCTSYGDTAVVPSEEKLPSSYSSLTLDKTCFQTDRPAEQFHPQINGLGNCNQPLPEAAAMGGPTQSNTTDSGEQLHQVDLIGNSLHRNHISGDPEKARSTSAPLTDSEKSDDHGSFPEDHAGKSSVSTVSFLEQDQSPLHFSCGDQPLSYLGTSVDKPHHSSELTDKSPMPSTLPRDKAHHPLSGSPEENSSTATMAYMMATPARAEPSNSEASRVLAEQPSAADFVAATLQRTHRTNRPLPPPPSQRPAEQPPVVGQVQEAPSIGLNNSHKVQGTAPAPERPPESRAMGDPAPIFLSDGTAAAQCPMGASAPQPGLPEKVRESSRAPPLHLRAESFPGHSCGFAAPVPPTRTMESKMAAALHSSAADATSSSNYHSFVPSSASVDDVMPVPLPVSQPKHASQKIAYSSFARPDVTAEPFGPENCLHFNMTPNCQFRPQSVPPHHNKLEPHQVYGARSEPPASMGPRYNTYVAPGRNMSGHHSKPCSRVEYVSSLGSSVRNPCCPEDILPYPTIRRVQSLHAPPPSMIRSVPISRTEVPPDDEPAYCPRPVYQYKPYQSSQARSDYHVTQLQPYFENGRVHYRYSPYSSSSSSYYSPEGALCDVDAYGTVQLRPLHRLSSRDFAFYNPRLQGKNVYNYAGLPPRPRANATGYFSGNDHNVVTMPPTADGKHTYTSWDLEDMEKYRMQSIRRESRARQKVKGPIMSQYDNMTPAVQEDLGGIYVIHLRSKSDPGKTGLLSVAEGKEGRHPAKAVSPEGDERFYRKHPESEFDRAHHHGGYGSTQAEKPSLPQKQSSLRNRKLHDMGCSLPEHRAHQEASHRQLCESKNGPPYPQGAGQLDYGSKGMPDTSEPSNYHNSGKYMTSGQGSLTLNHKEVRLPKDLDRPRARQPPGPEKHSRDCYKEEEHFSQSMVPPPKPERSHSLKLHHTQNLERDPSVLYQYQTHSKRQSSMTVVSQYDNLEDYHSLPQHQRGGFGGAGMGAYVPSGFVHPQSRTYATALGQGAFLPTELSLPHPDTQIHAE

T1: catenin delta-2 (CTNND2), mouse (mouse (endogenous in P15 mouse brain)) (UniProt O35927)
T1 sequence: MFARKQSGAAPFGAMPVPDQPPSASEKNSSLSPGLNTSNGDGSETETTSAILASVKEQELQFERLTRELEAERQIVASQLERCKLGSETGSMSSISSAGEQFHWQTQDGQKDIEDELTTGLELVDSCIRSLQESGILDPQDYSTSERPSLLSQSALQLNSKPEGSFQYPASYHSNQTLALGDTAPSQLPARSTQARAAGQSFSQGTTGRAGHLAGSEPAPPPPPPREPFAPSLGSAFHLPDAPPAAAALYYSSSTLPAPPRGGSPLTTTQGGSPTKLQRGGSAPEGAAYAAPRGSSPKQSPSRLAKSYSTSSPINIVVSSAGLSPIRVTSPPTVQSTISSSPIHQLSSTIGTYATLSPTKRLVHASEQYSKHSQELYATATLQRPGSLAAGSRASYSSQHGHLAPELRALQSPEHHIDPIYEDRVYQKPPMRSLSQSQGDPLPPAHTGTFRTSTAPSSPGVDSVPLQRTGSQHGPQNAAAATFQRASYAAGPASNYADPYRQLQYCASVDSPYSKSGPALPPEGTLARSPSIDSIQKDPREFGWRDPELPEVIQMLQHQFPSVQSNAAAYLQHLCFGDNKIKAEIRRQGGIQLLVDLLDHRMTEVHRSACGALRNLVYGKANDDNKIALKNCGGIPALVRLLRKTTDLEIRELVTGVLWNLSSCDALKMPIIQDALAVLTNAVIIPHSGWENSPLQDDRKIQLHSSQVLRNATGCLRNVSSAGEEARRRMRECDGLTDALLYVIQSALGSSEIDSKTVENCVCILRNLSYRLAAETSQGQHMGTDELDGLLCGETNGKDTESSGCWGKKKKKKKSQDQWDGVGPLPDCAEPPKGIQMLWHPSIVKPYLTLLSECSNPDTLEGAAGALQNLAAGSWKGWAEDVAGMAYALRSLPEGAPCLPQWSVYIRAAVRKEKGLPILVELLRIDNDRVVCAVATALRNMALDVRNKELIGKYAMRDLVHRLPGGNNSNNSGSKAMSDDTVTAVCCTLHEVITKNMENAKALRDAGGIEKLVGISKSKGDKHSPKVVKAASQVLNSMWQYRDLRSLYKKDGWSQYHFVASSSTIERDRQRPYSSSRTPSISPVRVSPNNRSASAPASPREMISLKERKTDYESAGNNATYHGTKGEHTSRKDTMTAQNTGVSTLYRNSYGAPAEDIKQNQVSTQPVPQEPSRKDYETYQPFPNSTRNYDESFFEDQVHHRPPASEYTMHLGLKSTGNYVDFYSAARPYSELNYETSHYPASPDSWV

B1: AKAP10 (protein, UniProt O88845 29-662)
chain: KVKGKEQEKTLDVKSTKASVAVHSPQKSTKNHALLEAAGPSHVAINAISANMDSFSSSRTATLKKQPSHMEAAHFGDLGRSCLDYQTQETKSSLSKTLEQVLRDTVVLPYFLQFMELRRMEHLVKFWLEAESFHSTTWSRIRAHSLNTVKQSSLAEPVSPSKRHETPASSVTEALDRRLGDSSSAPLLVTQSEGTDLSSRTQNPQNHLLLSQEGHSARSLHREVARTGSHQIPTDSQDSSSRLAVGSRNSCSSPLRELSEKLMKSIEQDAVNTFTKYISPDAAKPIPITEAMRNDIIAKICGEDGQVDPNCFVLAQAVVFSAMEQEHFSEFLRSHHFCKYQIEVLTSGTVYLADILFCESALFYFSEYMEKEDAVNILQFWLAADNFQSQLAAKKGQYDGQEAQNDAMILYDKYFSLQATHPLGFDDVVRLEIESNICREGGPLPNCFTTPLRQAWTTMEKVFLPGFLSSNLYYKYLNDLIHSVRGDEFLGGNVSLAAHGSVCLPEESHSGGSDGSTAQSSVKKASIKILKNFDEAIIVDAASLDPESLYQRTYAGKMSFGRVSDLGQFIRESEPEPDVKKSKGFMFSQAMKKWVQGNTDEAQEELAWKIAKMIVSDVMQQAHHDQPLEKSTKL
B2: CTNNA2 (protein, UniProt Q61301 1-953)
chain: MTSATSPIILKWDPKSLEIRTLTVERLLEPLVTQVTTLVNTSNKGPSGKKKGRSKKAHVLAASVEQATQNFLEKGEQIAKESQDLKEELVAAVEDVRKQGETMRIASSEFADDPCSSVKRGTMVRAARALLSAVTRLLILADMADVMRLLSHLKIVEEALEAVKNATNEQDLANRFKEFGKEMVKLNYVAARRQQELKDPHCRDEMAAARGALKKNATMLYTASQAFLRHPDVAATRANRDYVFKQVQEAIAGISSAAQATSPTDEAKGHTGIGELAAALNEFDNKIILDPMTFSEARFRPSLEERLESIISGAALMADSSCTRDDRRERIVAECNAVRQALQDLLSEYMNNTGRKEKGDPLNIAIDKMTKKTRDLRRQLRKAVMDHISDSFLETNVPLLVLIEAAKSGNEKEVKEYAQVFREHANKLVEVANLACSISNNEEGVKLVRMAATQIDSLCPQVINAALTLAARPQSKVAQDNMDVFKDQWEKQVRVLTEAVDDITSVDDFLSVSENHILEDVNKCVIALQEGDVDTLDRTAGAIRGRAARVIHIINAEMENYEAGVYTEKVLEATKLLSETVMPRFAEQVEVAIEALSANVPQPFEENEFIDASRLVYDGVRDIRKAVLMIRTPEELEDDSDFEQEDYDVRSRTSVQTEDDQLIAGQSARAIMAQLPQEEKAKIAEQVEIFHQEKSKLDAEVAKWDDSGNDIIVLAKQMCMIMMEMTDFTRGKGPLKNTSDVINAAKKIAEAGSRMDKLARAVADQCPDSACKQDLLAYLQRIALYCHQLNICSKVKAEVQNLGGELIVSGTGVQSTFTTFYEVDCDVIDGGRASQLSTHLPTCAEGAPIGSGSSDSSMLDSATSLIQAAKNLMNAVVLTVKASYVASTKYQKVYGTAAVNSPVVSWKMKAPEKKPLVKREKPEEFQTRVRRGSQKKHISPVQALSEFKAMDSF
B3: SRCIN1 (protein, UniProt Q9QWI6 1-1250)
chain: MQPWQCLRRFALAWWERTAEGRARSPREEVGPRDPGGRGEPDPERSSPPMLSADDAEYPREYRTLGGGGGGGSGGRRFSNVGLVHTSERRHTVIAAQSLEALSGLQKADADRKRDAFMDHLKSKYPQHALALRGQQDRMREQVGGWTVDPVCLLSSLCSHLHGDSTPSGAGQPAQQPNYWSFKTRSSRHTQGAQPGLADQAAKLSYASAESLETMSEAELPLGFSRMNRFRQSLPLSRSASQTKLRSPGVLFLQFGEETRRVHITHEVSSLDTLHALIAHMFPQKLTMGMLKSPNTAILIKDEARNVFYELEDVRDIQDRSIIKIYRKEPLYAAFPGSHLTNGDLRREMVYASRESSPTRRLNNLSPASHLASSSPPPGLPSGLPSGLPSGSPSRSRLSYAGGRPPSYAGSPVHHAAERLGGAPTGQGVSPSPSAILERRDVKPDEDLAGKAGGMVLVKGEGLYADPYGLLHEGRLSLAAAAETHSHTRARAACTSGVPCALSAPTPLPRCSPTWRTRCTRRALAALYGDGYGFRLPPSSPQKLADVSAPSGGPPPPHSPYSGPPSRGSPVRQSFRKDSGSSSVFAESPGGKARSTGSASTAGAPPSELFPGPGERSLVGFGPPVPAKDTETRERMEAMEKQIASLTGLVQSALLRGSEPETPSEKVEGSNGAATPSAPVCGSGSKSSGATPVSGPPPPSASSTPAGQPTAVSRLQMQLHLRGLQNSASDLRGQLQQLRNVQLQNQESVRALLKPTEADVSMRVSEAARRQEDPLQRQRTLVEEERLRYLNDEELITQQLNDLEKSVEKIQRDVAHNHRLMPGPELEEKALVLKQLGETLTELKAHFPGLQSKMRVVLRVEVEAVKFLKEEPQRLDGLLKRCRGVTDTLAQIRRQVDEGMWPPPNNLLNQSPKKVAAETDFSKGLDFEIPPPSPPLNLHELSGPAEGTPLTPKSTNPTKCLDASSKRNTDKAVSVEAAERDWEEKRAALTQYSAKDINRLLEETQAELLKAIPDLDCASKTHPGPAPTPDHKPPKAPHGQKAAPRTEPSGRRGSDELTVPRYRTEKPSKSPPPPPPRRSFPSSHGLTTTRTGEVVVTSKKDSVFIKKAESEELEVQKPQVKLRRAVSEVVRPASTPPIMASAIKDEDDEERIIAELESGGSSVPPMKVVTPGASRLKAAQGPAGSPDKGKHGKQRTEYMRIQAQQQATKPSKEVSGPNETSSPGSEKPSGSRTSIPVLTSFGARNSSISF
B4: PKP4 (protein, UniProt Q68FH0 1-1190)
chain: MPAPEQGSLVEEGQPQTHQEAVSTGPGMEPETTATTILASVKEQELQFQRLTRELEVERQIVASQLERCRLGAESPSIASTSSTEKSFPWRSTDVPNPGVSKPRVSDTIHPNNYLIRTEPEQGTLYSPEQTSLHESEGSLGNSRSSTQMNSYSDSGYQEAGSFHNSQTVNKADSRQHPFTGSTSNHVVRTSRAEGQTLVQPSVANRAMRRVSSVPSRAQSPSYVTSTGVSPSRGSLRTSLGSGFGSPSVTDSRPLNPSAYSSSTLPAQRAASPYSQRPASPTAVRRVGSVTSRQTSNPNGPVPQYQTTTRVGSPLTLTDAQTRVASPSQGQVGSSSPKRSGMTAVPQHLGPSLQRTVHDMDQFGQQQYDIYERMVPPRPDSLTGLRSSYASQHSQLGQELRSAVSPDLHITPIYEGRTYYSPVYRSPNHGTVELQGSQTALYRTGSVGIGNLQRTSSQRSTLTYQRNNYALNTAATYAEPYRPVQYRVQECSYNRLQHTGPADDGATRSPSIDSIQKDPREFAWRDPELPEVIHMLQHQFPSVQANAAAYLQHLCFGDNKVKMEVYRLGGIKHLVDLLDHRVLEVQKNACGALRNLVFGKSTDENKIAMKNVGGIPALLRLLRKSIDAEVRELVTGVLWNLSSCDAVKMTIIRDALSTLTNTVIVPHSGWNNSSFDDDHKIKFQTSLVLRNTTGCLRNLSSAGEEARKQMRSCEGLVDSLLYVIHTCVNTSDYDSKTVENCVCTLRNLSYRLELEVPQARLLGLNELDDLLGKESPSKDSEPSCWGKKKKKKKRTPQEDQWDGVGPIPGLSKSPKGVEMLWHPSVVKPYLTLLAESSNPATLEGSAGSLQNLSAGNWKFAAYIRAAVRKEKGLPILVELLRMDNDRVVSSVATALRNMALDVRNKELIGKYAMRDLVNRLPGGNGPSILSDETVAAICCALHEVTSKNMENAKALADSGGIEKLVNITKGRGDRSSLKVVKAAAQVLNTLWQYRDLRSIYKKDGWNQNHFITPVSTLERDRFKSHPSLSTTNQQMSPIIQSVGSTSSSPALLGIREPRSEYDRTQPPMQYYNSQGDTTHKGLYPGSSKPSPIYISSYSSPAREQNRRLQHQQLYYQDDSTRKTLDAYRLYLQSPRSYEDPYCDDRVHFPASTDYSTQYGLKSTTNYVDFYSTKRPSYRAEQYPGSPDSWV

biological target: T1, catenin delta-2 (CTNND2), mouse (mouse (endogenous in P15 mouse brain)); assay: affinity purification with mass spectrometry

binding, binds:
CEP170B (from UniProt Q80U49 1-1574)
ARHGAP32 (from UniProt Q811P8 1-2089)
SYNGAP1, mouse (from UniProt F6SEU4 1-1340)

biological target: T1, catenin delta-2 (CTNND2), mouse (mouse (endogenous in P15 mouse brain)); assay: affinity purification with mass spectrometry; remark: another data set of the same source

binding, binds:
B1
B2
B3
B4
